Measured values published in patent US20160177324A1, “NOVEL PROTEIN AND GENE RELATED TO FLAVONOID O-METHYLTRANSFERASE (FOMT) AND THEIR USES THEREFORE” (INSTITUTE OF BOTANY, THE CHINESE ACADEMY OF SCIENCES, priority 2013, published 2016).
For at least one compound, name, drawing or mass did not settle the structure.

Legend:
PsFOMT [1] = assay: In vitro enzyme assay and kinetics of recombinant PsFOMT with flavonoid substrates; assay type: biochemical, Paeonia suffruticosa cv. 'Gunpohden'; design: key: —: no product detected; settings: purified recombinant PsFOMT, 200 μM SAM, 1 mM MgCl2, pH 7.5, 35° C., substrate 5 to 200 μM; means (SE) of triplicate assays
PsFOMT [2] = assay: as above; assay type: biochemical, Paeonia suffruticosa cv. 'Gunpohden'; design: key: —: no product detected; settings: purified recombinant PsFOMT, 200 μM SAM, 1 mM MgCl2, pH 7.5, 35° C.; means (SE) of triplicate assays
Description: Full length FOMTs were amplified by primers SEQ No.7 & 8 in which restriction enzyme NdeI and BamHI site were introduced to the 5'-end and 3'-end, respectively. The DNA fragment of interest was ligated into the […]3 vector, and then the recombinant plasmid was transducted into DH5a. The FOMT cDNAs were sequenced to verify that no mutation occurred. The recombinant plasmid was isolated and digested with Ndel and BamHI. Subsequently, the fragment was ligated to the NdeI and BamHI excised expression vector pMAL-[…] with a MBP tag to yield pMAL-PsFOMT and pMAL-PtFOMT (FIG. 3). The correct construction tested by sequencing was introduced into E. coli strain BL21. E. coli harboring pMAL-PsFOMT and pMAL-PtFOMT were cultivated in 2 mL LB liquid medium containing glucose, supplemented by 100 μg/mL ampicillin until OD600 reached 0.4-0.5. After addition of isopropyl β-D-thiogalactopyranoside (IPTG) to a final concentration of 0.1 mM, the cells were further cultured at 16° C. for 20 h. Harvest the cells by centrifugation and discard the supernatant. The cells were resuspended in column buffer (20 mM Tris-HCl, 200 mM NaCl 1 mM EDTA, 10 mM β-mercaptoethanol, pH 7.4), and disrupted by sonication in an ice-water bath (Lan, T., et al., Extensive functional diversification of the Populus glutathione S-transferase supergene family. Plant Cell, 2009. 21(12): p. 3749-3766.). In each case, the homogenate was then subjected to centrifugation at 10,000 g for 10 min at 4° C. The resultant particulate material and a small portion of the supernatant were analyzed by SDS-PAGE. The rest of the supernatant was loaded onto an amylose resin column (NEB) that had been pre-equilibrated with column buffer. The overexpressed fusion protein bound to the column was eluted with column buffer plus 10 mM maltose. The concentration of purified fusion protein was detected by UV absorbance at 280 nm. As a control, BL21 cells transformed with an empty pMAL-[…] vector were assayed. The purified protein was stored at -80° C. mixed with 10% glycerol. The reaction system was according to Hugueney et al. with some modification (Hugueney, P., et al., A novel cation-dependent O-methyltransferase involved in anthocyanin methylation in grapevine. Plant Physiology, 2009. 150(4): p. 2057-2070.). Purified recombinant FOMT (2 μg) was assayed in a final volume of 200 μL containing 200 μM SAM, 1 mM MgCl2, 14 mM β-mercaptoethanol, 100 mM Tris, pH 7.5, and 20 μM flavonoid substrates. Incubation was performed at 35° C. and stopped with 200 μL methanol containing 2% formic acid. […] Reaction product was analyzed by a Dionex HPLC system (Sunnyvale, Calif.), equipped with a P680 HPLC pump, an UltiMate 3000 autosampler, a TCC-100 thermostated column compartment and a Dionex PDA100 photodiode array detector. The analytical column was C18 column of ODS 80Ts QA (150 mm×4.6 mm, 5 μm i.d., Tosoh, Tokyo) protected with a C18 guard cartridge (Shanghai ANPEL Scientific Instrument, Shanghai). The following solvent and gradient were used: A, 10% aqueous formic acid; B, methanol; constant gradient from 10 to 36% B within 15 min and back to 10% B in 3 min; the flow rate was 0.8 mL min^-1; Column temperature was maintained at 35° C.; 20 μL of analyte was injected. Chromatograms were obtained at 525 nm for anthocyanins and 350 nm for other flavonoids, and photodiode array spectra were recorded from 200 to 800 nm. Km and Vmax values were calculated from Lineweaver-Burk plots.

[3] = tested on: cyanidin 3-glucoside 3′-O-methyltransferase (CGMT); settings: partially purified from Vitis vinifera cell suspension; Bailly et al. 1997; cited from earlier work

| SMILES | Km (PsFOMT [1]) | Kcat × 10 (PsFOMT [2]) | Kcat/Km (PsFOMT [2]) | Specific Activity (PsFOMT [2]) | Vmax (PsFOMT [2]) | activity of CGMT with substrate [3] |
| --- | --- | --- | --- | --- | --- | --- |
| Oc1cc(O)c2cc(O)c(-c3ccc(O)c(O)c3)[o+]c2c1 [Cyanidin] | — | — | — | — | — | 13% |
| Oc1cc(O)c2cc(O)c(-c3cc(O)c(O)c(O)c3)[o+]c2c1 [Delphinidin] | — | — | — | — | — | no activity |
